Test in all cases: SEC-MALS
Background: In gel filtration, larger molecules generally elute earlier.

Assay [1] addresses Drosophila melanogaster GTPase Rap1 G12V (amino acids 1-180), GMPPNP-loaded (Drosophila melanogaster) (UniProt P08645).
The target in assay [2] is Drosophila melanogaster Cno RA1 domain (amino acids 1-137) (Drosophila melanogaster) (UniProt Q24279).
In assay [3] the target is Drosophila melanogaster Cno RA2 domain (amino acids 222-350) (Drosophila melanogaster) (UniProt Q24279).

These are yes or no findings as the source states them, for the method shown.

B1: Drosophila melanogaster GTPase Rap1 G12V (amino acids 1-180), GMPPNP-loaded (enzyme, UniProt P08645 1-180, looked up)
chain: MREYKIVVLGSVGVGKSALTVQFVQCIFVEKYDPTIEDSYRKQVEVDGQQCMLEILDTAGTEQFTAMRDLYMKNGQGFVLVYSITAQSTFNDLQDLREQILRVKDTDDVPMVLVGNKCDLEEERVVGKELGKNLATQFNCAFMETSAKAKVNVNDIFYDLVRQINKKSPEKKQKKPKKSL
As to B1, the binding entry in assay [1] is “no binding (tested: 200 µM)”.

B2: Drosophila melanogaster Cno RA1 domain (amino acids 1-137) (domain or fragment, UniProt Q24279 1-137, looked up)
chain: MSHDKKMLDREAVRSVIQQWNANRLDLFALSEPDENLLFHGVMRFYFQDAGQKVATKCIRVASDATVTDVIDTLIEKFRPDMRMLSVPNYALYEVHANGEERRLNADEKPLLVQLNWHIDDREGRFLLKNIDQKTTP
Consider B2, for which the binding result in assay [2] is listed as “no binding (tested: 200 µM)”.

B3: Drosophila melanogaster Cno RA2 domain (amino acids 222-350) (domain or fragment, UniProt Q24279 222-350, looked up)
chain: TRSISNPEAVMRRRRQQKLEKKLQQFRSRDGGPDTGGTLKIYGESLCQDVPYKTLLLSIRDCAQAVVREMLTKYGLEKADPLHYCLVQVNSDGTEYILDDDECPLSILMNHPTSRGSIMFHVRRRPADS
For B3, in assay [3], the binding entry is listed as “no binding (tested: 200 µM)”.

The values are drawn from publication doi:10.1101/2024.07.29.605598 (bioRxiv, 2024).
